Measured values reported in the supplement of paper PMC7666118.
The list shows a part of the results.

Sequences of proteins named here, by UniProt entry; tags and fusion partners are left off. A change or cut given only in a name is not applied to a line headed by its entry.
UniProt Q15714: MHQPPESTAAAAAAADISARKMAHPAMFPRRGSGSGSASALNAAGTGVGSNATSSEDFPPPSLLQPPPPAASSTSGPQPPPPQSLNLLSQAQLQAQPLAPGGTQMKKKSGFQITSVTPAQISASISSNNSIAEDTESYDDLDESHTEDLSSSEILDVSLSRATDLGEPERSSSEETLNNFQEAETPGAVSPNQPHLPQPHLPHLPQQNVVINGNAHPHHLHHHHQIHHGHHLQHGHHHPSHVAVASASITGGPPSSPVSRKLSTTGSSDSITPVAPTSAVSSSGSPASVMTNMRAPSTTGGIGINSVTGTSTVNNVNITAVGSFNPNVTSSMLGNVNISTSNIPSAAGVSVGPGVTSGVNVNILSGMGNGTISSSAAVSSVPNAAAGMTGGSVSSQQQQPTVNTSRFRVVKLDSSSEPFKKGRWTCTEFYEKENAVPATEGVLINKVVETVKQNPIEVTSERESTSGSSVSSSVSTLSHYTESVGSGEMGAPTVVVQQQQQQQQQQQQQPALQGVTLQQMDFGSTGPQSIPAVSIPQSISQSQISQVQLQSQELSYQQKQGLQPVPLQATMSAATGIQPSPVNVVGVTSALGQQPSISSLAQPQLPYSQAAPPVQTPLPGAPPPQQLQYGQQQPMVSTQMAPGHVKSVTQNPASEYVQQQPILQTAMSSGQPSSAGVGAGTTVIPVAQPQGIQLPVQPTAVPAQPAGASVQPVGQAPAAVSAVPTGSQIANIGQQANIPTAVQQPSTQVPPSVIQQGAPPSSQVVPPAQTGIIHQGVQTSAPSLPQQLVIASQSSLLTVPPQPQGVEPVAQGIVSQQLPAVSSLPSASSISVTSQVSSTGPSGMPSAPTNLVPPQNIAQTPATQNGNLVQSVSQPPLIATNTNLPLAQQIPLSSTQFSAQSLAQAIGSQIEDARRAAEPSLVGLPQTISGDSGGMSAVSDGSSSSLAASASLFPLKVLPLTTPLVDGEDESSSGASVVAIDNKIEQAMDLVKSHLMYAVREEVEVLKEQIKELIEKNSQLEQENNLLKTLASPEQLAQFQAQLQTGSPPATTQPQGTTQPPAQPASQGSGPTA
UniProt Q9NNW7, whole entry: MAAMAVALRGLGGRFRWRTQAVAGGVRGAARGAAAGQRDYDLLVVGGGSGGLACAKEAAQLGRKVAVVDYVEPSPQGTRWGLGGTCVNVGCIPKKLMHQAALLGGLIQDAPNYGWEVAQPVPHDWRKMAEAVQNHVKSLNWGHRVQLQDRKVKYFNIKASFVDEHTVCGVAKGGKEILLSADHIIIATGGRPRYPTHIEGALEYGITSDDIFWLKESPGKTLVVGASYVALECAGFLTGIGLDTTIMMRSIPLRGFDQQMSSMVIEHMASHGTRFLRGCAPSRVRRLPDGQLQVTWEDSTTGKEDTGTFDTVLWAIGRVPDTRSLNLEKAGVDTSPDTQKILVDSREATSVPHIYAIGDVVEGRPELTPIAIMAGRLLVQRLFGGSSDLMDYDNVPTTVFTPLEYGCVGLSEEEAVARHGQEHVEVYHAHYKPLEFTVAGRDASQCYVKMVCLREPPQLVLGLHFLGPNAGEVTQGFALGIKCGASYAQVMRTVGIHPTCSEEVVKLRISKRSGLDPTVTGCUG
UniProt Q70CQ2: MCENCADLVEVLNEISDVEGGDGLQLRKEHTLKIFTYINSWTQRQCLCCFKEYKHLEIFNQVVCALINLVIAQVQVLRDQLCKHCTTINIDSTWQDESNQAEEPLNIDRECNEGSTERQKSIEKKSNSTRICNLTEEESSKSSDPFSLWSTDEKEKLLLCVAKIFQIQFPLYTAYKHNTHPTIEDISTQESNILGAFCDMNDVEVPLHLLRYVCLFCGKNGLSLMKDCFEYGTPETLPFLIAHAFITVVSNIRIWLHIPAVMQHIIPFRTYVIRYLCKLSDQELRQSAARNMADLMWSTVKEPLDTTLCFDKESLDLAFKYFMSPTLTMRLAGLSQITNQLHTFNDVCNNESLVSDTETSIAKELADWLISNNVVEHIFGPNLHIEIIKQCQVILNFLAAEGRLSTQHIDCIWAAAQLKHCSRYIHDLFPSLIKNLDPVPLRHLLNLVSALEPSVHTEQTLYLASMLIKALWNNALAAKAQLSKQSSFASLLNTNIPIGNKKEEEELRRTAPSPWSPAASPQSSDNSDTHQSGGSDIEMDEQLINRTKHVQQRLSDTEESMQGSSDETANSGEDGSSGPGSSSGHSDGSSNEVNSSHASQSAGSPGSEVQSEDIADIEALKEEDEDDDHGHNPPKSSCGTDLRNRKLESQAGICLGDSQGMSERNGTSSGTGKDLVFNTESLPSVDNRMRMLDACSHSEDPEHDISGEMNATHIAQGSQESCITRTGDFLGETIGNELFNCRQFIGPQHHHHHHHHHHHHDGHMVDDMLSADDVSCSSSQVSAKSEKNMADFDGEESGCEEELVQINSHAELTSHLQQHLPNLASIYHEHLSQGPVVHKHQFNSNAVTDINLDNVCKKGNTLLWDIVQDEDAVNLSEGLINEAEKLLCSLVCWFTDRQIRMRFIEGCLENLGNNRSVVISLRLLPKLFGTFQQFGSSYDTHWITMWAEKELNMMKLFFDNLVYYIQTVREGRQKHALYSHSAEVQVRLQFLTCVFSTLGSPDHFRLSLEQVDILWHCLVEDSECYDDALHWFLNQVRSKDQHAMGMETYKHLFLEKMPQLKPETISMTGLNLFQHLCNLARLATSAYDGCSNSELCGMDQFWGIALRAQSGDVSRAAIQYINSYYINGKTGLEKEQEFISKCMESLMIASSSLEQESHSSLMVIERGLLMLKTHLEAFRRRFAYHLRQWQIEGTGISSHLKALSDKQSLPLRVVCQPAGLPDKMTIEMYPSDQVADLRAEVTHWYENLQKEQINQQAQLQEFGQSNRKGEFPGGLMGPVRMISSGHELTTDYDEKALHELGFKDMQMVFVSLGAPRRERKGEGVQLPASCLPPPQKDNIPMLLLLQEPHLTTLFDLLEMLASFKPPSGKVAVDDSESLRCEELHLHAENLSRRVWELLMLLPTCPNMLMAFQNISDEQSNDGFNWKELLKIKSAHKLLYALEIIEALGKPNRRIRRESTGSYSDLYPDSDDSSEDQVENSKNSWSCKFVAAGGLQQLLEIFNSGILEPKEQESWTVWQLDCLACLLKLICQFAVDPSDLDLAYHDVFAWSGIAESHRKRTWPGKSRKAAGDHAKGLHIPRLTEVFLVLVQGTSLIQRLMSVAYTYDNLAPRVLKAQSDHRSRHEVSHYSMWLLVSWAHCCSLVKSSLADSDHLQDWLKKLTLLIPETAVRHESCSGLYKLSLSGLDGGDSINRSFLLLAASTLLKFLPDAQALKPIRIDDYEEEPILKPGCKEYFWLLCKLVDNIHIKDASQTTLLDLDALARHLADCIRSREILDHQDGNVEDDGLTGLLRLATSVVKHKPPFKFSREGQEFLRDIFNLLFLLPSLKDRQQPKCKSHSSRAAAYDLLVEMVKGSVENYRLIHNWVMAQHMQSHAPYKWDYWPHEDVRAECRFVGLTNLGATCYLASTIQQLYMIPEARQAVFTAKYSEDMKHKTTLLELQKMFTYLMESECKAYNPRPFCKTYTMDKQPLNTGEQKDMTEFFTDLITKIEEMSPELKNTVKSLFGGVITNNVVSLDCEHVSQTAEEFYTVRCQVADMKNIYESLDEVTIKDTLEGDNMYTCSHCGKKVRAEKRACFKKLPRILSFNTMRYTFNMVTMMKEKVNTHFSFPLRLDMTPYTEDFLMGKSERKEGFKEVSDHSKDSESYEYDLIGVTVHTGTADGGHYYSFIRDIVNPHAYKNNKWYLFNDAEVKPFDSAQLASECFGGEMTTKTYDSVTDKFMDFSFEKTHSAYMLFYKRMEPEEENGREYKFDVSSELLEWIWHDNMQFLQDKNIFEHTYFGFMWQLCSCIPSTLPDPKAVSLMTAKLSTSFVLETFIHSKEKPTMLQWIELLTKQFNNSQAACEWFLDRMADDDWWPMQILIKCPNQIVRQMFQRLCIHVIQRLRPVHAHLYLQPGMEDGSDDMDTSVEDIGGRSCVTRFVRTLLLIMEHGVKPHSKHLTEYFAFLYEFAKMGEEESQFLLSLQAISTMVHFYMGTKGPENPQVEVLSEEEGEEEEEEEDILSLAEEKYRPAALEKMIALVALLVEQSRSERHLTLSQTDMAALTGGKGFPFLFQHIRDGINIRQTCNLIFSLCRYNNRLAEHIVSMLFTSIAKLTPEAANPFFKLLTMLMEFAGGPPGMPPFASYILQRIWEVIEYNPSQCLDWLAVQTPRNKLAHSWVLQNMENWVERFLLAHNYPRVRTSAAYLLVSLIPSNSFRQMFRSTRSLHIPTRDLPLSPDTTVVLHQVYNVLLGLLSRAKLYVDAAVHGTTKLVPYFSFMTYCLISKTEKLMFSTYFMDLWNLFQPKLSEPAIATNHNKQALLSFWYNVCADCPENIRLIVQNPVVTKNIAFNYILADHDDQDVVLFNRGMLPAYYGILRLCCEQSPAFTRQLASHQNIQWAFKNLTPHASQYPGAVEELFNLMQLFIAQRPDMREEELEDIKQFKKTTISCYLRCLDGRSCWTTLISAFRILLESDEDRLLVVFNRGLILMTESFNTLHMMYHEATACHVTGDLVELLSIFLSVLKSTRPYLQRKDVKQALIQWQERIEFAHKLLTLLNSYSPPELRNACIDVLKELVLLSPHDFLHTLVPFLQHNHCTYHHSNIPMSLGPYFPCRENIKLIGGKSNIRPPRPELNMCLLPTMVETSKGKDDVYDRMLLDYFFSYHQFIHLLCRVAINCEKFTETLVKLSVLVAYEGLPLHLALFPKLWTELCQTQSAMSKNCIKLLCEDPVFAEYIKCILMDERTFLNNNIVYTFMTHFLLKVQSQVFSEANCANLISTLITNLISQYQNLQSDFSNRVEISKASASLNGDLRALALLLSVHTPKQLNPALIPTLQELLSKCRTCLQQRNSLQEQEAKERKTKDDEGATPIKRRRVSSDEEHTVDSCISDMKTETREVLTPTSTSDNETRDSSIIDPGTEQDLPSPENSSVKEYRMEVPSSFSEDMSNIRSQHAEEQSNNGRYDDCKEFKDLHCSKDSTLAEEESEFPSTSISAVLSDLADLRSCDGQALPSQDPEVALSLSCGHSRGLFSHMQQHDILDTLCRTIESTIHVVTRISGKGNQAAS
UniProt Q8WVY7: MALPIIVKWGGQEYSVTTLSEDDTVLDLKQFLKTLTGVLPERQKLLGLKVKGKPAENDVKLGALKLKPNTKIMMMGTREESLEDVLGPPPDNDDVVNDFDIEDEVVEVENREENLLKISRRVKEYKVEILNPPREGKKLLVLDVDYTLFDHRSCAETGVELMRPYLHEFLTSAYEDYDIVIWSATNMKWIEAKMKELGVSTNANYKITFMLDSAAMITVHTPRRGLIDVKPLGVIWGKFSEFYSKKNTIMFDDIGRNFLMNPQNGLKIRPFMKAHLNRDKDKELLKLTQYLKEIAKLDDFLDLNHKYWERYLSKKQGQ
UniProt P60604: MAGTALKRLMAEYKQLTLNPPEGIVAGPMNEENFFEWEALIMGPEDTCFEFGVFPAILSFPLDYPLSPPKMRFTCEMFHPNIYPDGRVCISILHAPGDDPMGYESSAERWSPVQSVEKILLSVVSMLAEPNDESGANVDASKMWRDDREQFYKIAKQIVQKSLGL
UniProt Q9UL33, whole entry: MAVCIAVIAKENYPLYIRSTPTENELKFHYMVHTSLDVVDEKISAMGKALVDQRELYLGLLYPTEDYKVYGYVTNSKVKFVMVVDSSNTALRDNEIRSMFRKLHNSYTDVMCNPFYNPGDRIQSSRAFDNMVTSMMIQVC
UniProt Q9C0B0: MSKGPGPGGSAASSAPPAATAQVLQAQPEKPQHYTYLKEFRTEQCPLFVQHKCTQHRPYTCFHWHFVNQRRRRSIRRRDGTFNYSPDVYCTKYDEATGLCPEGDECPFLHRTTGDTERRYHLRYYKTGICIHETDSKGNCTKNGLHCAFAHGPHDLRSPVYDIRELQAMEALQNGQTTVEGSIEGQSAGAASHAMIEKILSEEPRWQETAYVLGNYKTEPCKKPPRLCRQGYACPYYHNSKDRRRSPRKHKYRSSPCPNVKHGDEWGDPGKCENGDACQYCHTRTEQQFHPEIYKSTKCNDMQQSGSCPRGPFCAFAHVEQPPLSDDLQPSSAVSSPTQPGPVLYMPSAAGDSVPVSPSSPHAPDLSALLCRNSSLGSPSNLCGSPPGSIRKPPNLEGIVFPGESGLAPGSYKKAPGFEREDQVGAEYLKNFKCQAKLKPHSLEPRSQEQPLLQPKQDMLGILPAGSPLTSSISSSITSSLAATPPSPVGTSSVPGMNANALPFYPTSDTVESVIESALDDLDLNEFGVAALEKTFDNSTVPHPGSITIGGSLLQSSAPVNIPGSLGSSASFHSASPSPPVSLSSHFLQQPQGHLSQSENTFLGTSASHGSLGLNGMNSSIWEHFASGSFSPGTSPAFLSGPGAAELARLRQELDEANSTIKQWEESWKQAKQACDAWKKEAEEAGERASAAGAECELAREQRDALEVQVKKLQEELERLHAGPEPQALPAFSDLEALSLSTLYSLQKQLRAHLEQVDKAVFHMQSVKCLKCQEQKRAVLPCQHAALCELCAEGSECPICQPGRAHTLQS

The targets below were run with COc1ccc(Cn2ccc3ccc(C(=O)NO)cc32)cc1 (assay: dose-dependent thermal stabilisation call (2D-TPP, DLPTP, 10% FDR) (binary (1 = stabilised)); higher = stabilised by the compound). Conditions: system: HL-60 intact cells; concentration range 0.04-10 µM.
With TSC22D1 (UniProt Q15714) the “dose-dependent thermal stabilisation call” value was inactive: 0.
With UBXN7 (UniProt O94888) the “dose-dependent thermal stabilisation call” value was inactive: 0.
UROD (UniProt P06132) was tested, and the “dose-dependent thermal stabilisation call” value was inactive: 0.
With UBE2T (UniProt Q9NPD8) the “dose-dependent thermal stabilisation call” value was inactive: 0.
UBIAD1 (UniProt Q9Y5Z9) was tested, and the “dose-dependent thermal stabilisation call” value was inactive: 0.
With TRPM2 (UniProt O94759) the “dose-dependent thermal stabilisation call” value was inactive: 0.
For TXNDC13 (UniProt Q9H1E5), the “dose-dependent thermal stabilisation call” value was inactive: 0.
For UPRT (UniProt Q96BW1), the “dose-dependent thermal stabilisation call” value was inactive: 0.
In the case of UBE2E1 (UniProt P51965), the “dose-dependent thermal stabilisation call” value is reported as inactive: 0.
For USP25 (UniProt Q9UHP3), the “dose-dependent thermal stabilisation call” value was inactive: 0.
TXNRD2 (UniProt Q9NNW7) was tested, and the “dose-dependent thermal stabilisation call” value was inactive: 0.
In the case of UBR7 (UniProt Q8N806), the “dose-dependent thermal stabilisation call” value is reported as inactive: 0.
TXNRD1 (UniProt Q16881) was tested, and the “dose-dependent thermal stabilisation call” value was inactive: 0.
For UQCRC2 (UniProt P22695), the “dose-dependent thermal stabilisation call” value was inactive: 0.
In the case of USP34 (UniProt Q70CQ2), the “dose-dependent thermal stabilisation call” value is reported as inactive: 0.
In the case of TTL (UniProt Q8NG68), the “dose-dependent thermal stabilisation call” value is reported as inactive: 0.
In the case of TTLL12 (UniProt Q14166), the “dose-dependent thermal stabilisation call” value is reported as inactive: 0.
In the case of USP4 (UniProt Q13107), the “dose-dependent thermal stabilisation call” value is reported as inactive: 0.
UPF3B (UniProt Q9BZI7) was tested, and the “dose-dependent thermal stabilisation call” value was inactive: 0.
In the case of TYW3 (UniProt Q6IPR3), the “dose-dependent thermal stabilisation call” value is reported as inactive: 0.
For USP16 (UniProt Q9Y5T5), the “dose-dependent thermal stabilisation call” value was inactive: 0.
For UBLCP1 (UniProt Q8WVY7), the “dose-dependent thermal stabilisation call” value was inactive: 0.
For UPF3A (UniProt Q9H1J1), the “dose-dependent thermal stabilisation call” value was inactive: 0.
In the case of UBP1 (UniProt Q9NZI7), the “dose-dependent thermal stabilisation call” value is reported as inactive: 0.
With TSEN34 (UniProt Q9BSV6) the “dose-dependent thermal stabilisation call” value was inactive: 0.
For UCHL5 (UniProt Q9Y5K5), the “dose-dependent thermal stabilisation call” value was inactive: 0.
For TUBB2C (UniProt P68371), the “dose-dependent thermal stabilisation call” value was inactive: 0.
UBE2G2 (UniProt P60604) was tested, and the “dose-dependent thermal stabilisation call” value was inactive: 0.
With TRAPPC2L (UniProt Q9UL33) the “dose-dependent thermal stabilisation call” value was inactive: 0.
TUFM (UniProt P49411) was tested, and the “dose-dependent thermal stabilisation call” value was inactive: 0.
In the case of TUSC4 (UniProt Q8WTW4), the “dose-dependent thermal stabilisation call” value is reported as inactive: 0.
For TRIM22 (UniProt Q8IYM9), the “dose-dependent thermal stabilisation call” value was inactive: 0.
UBXN1 (UniProt Q04323) was tested, and the “dose-dependent thermal stabilisation call” value was inactive: 0.
UNK (UniProt Q9C0B0) was tested, and the “dose-dependent thermal stabilisation call” value was inactive: 0.
For TUBGCP5 (UniProt Q96RT8), the “dose-dependent thermal stabilisation call” value was inactive: 0.
TRIM25 (UniProt Q14258) was tested, and the “dose-dependent thermal stabilisation call” value was inactive: 0.
With TRAPPC6B (UniProt Q86SZ2) the “dose-dependent thermal stabilisation call” value was inactive: 0.
